In the supplement of paper PMC12578635:
The other results are listed elsewhere or left out. No stated cut-off is given here; in the data, active = 150% or more and inactive = the rest. Many values rest on one well or one pass, so single values are uncertain.

Each compound was assayed on Staphylococcus aureus JE2-lux inside RAW 264.7 macrophages (assay: intracellular bacterial bioluminescence relative to DMSO vehicle; higher = higher intracellular bacterial metabolic activity). Conditions: 10 µM; treatment time 4 h; gentamicin 50 µg/ml.

Intracellular bacterial bioluminescence, active:
CC(=O)c1cccc(Nc2cc(C(F)(F)F)nc3ncnn23)c1 157%

Intracellular bacterial bioluminescence, inactive:
Cc1ccc2nc3c(cc(C(=O)NCC4CCCO4)c(=N)n3CCCn3ccnc3)c(=O)n2c1 (stereo not given) 102%, CC(=O)NC1(c2ccc(F)cc2)CCN(Cc2ccc3cccc(Cl)c3n2)CC1 106%, CCc1nc(OCC(=O)NCc2ccc(OC(C)C)cc2)c2c(C)c(C)oc2n1 78.5%, O=C1C=C/C(=N\Nc2cc3c(cc2[N+](=O)[O-])OCCO3)c2ccccc21 83%, CCN1C(=O)c2cccc3c(NC(=O)c4ccc(Cl)s4)ccc1c23 95.3%, Cc1nccn1CC(=O)N/N=C/c1ccc(O)c(O)c1 103%, COc1ccc2[nH]cc(CCNC(=O)CN3C(=O)S/C(=C\c4ccc(F)cc4)C3=O)c2c1 58.2%, CC(=O)c1cccc(NC(=O)c2cc3cccnc3n(C)c2=O)c1 31.2%, Cc1ccc(C)c(NC(=O)c2ccc(S(=O)(=O)N3CCCCC3C)cc2)c1 (stereo not given) 92.6%, CCOC(=O)c1cnc(Nc2ccc(OC)cc2OC)c2ccccc12 100%, CCn1c(CN2CCNCC2)nc2cc(C(=O)N(C)C)ccc21 95.9%, CCS(=O)(=O)c1cccc(C(=O)Nc2nc3c(C)ccc(Cl)c3s2)c1 125%, CN1C(=O)CC(Sc2ncccc2C(=O)O)C1=O (stereo not given) 135%, O=C(Cn1cnc2c(nnn2-c2cccc(F)c2)c1=O)N1CCN(c2ccccc2)CC1 124%, Cc1ccc(SCCCC(=O)Nc2cccc3c2C(=O)NC3=O)cc1 89.2%, COc1ccc(-c2csc(NC(=O)CSc3nncn3N)n2)cc1 98.3%, O=C(NC1CCCCC1)C(c1ccc(O)cc1)N(C(=O)c1cnccn1)c1cccc(F)c1 (stereo not given) 106%, CCc1ccc2c(c1)cc(CN(C(=S)Nc1cccc(C)c1C)C1CC1)c1nnnn12 97%, COc1cccc(-c2cc(C(F)(F)F)n3nc(C(=O)N4CCCC4c4cc(C)on4)cc3n2)c1 (stereo not given) 86.4%, COc1ccccc1NC(=O)CSc1nnc(-n2nc(C)cc2C)c2ccccc12 38.9%, CCc1cc2c(N3CCCC(C(=O)Nc4cc(C)ccc4OC)C3)ncnc2s1 (stereo not given) 58.7%, Cc1ccc(-n2nnc3c(=O)n(CC(=O)N4CCc5ccccc54)cnc32)cc1C 138%, O=C(Cc1ccc(Cl)cc1)Nc1cccc(-c2ccc3nncn3n2)c1 71.4%, N#CC1=C(SCC(=O)Nc2ccccc2F)NC2=C(C(=O)CCC2)C1c1ccco1 (stereo not given) 64.7%, CC1CCCCN1C(=O)CSc1ncnc2c1sc1nc3ccccc3cc12 (stereo not given) 105%, CCOc1ccccc1C1Nc2ccc(CC)cc2[C@H]2OCCC[C@@H]12 (stereo not given in full) 44.5%, Cc1ccc(NC(=O)C2OCOc3ccccc32)cc1N1CCCCC1 (stereo not given) 53.3%, O=C(CS(=O)CC(=O)Nc1cnc2ccccc2c1)Nc1ccc(Cl)cc1 (stereo not given) 72.7%, O=C(CSc1nc2[nH]ncc2c(=O)n1-c1ccccc1)Nc1ccc(Cl)cc1Cl 70.2%, Cc1ccc(S(=O)(=O)CCCC(=O)Nc2nc3c(C)c(Cl)ccc3s2)cc1 65.4%, COc1ccc(NCc2cc3c(C)nn(-c4ccccc4)c3[nH]c2=O)c(Cl)n1 112%, N#Cc1nc(/C=C/c2cccs2)oc1N1CCNCC1 92.9%, CC1(C)Oc2ccc(S(=O)(=O)NCCCN3CCOCC3)cc2NC1=O 111%, COc1ccc(CCNC(=O)Cc2cc(=O)[nH]c(=O)[nH]2)cc1OC 120%, Cc1cc(-c2cncnc2C2CCN(C(=O)c3cn(C)nc3C)CC2)on1 108%, COc1ccc(NC(=O)CN2C(=O)N(C)N(C)c3ncccc32)cc1OC 94.9%, COc1ccc(C2=C(C)C(N3CCC(C(=O)NCCC(C)C)CC3)=NS2(=O)=O)cc1 93.6%, COc1ccc(-c2cn3c(C)c(C(=O)N4CCN(Cc5ccccc5)CC4)sc3n2)cc1 102%, Cc1cccn2c(=O)nc(SCc3ccc(F)cc3)nc12 73.1%, COc1ccc(-c2cc(-c3ccccc3)nc(SCC(=O)Nc3nccs3)c2C#N)cc1 109%, CC(c1ccccc1)N1CCn2c(nc3ccccc32)C1 (stereo not given) 82.8%, Cc1c(Cl)cccc1S(=O)(=O)N1CCN(c2cc(C)c3c(C)nn(-c4ccccc4)c3n2)CC1 108%, COc1ccc(Cl)c2sc(NC(=O)CN3C(=O)c4ccccc4C3=O)nc12 6.22%, COc1cccc(OCc2nnc(SCC(=O)Nc3cc(C)on3)n2C)c1 44.1%
